PubChem BioAssay AID1259308 | NCATS – 2017
Aim: 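Genes whose loss raises luciferase production in HEK293 cells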 (primary screen). System: human HEK293 embryonic kidney cells stably expressing firefly luciferase (HEK-CMV-Luc2-Hygro). Reagent: single siRNA against human genes, 0.8 pmol siRNA per well. Time to read-out: 72 h. Read-out: 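Reporter luminescence and viable-cell signal on separate replicate plates, given as percent of non-targeting control and median/MAD z-scores, plus per-cell luciferase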. Reading the numbers: total luciferase, z-score and total luciferase, % of control: higher = more reporter protein produced; luciferase per cell, z-score: higher = more reporter output per viable cell; viable cells, % of control: higher = more viable cells. Call rule: 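Active when the median/MAD z-score for overall luciferase is greater than 3; a gene was taken forward for validation with new siRNAs if at least two of its three siRNAs passed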. Calls: active = raised luciferase; inactive = no rise.
In all, the deposit lists about 59,000 reagents; below is a random part of them. In the full data, about 1,510 (2.6%) were called active. 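Calls use total luciferase alone and ignore viability, so some active siRNAs may act by altering cell number.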 Entries without a mark were called inactive. The numbers tell different reagents against one gene apart.

gene	siRNA no.	total luciferase, z-score	total luciferase, % of control	luciferase per cell, z-score	viable cells, % of control
POLDIP3	1	-0.76	66.8	-1.24	103
POLDIP3	2	-0.663	68.7	-1.04	101
POLDIP3	3	2.01	122	2.34	73.6
CXCR6	1	2.44	130	4.06	50.1
CXCR6	2	-0.389	74.1	-0.321	90.1
CXCR6	3	1.85	119	1.4	91.9
EZHIP	1	2.35	129	1.44	98.5
EZHIP	2	1.84	118	1.59	87.1
EZHIP	3	1.83	118	1.23	95.7
OR10A5	1	0.0167	82.2	0.315	84.6
OR10A5	2	-2.95	23.3	-1.94	43.4
OR10A5	3	1.37	109	0.419	109
KCTD17	1	1.69	116	0.657	109
KCTD17	2	-1.31	55.9	-1.36	89.3
KCTD17	3	-1.15	59	-1.62	101
CIMAP2	1	3.16 (active)	145	3.52	64.1
CIMAP2	2	-1.1	60	0.168	64.2
CIMAP2	3	1.81	118	4.53	40
PRCC	1	0.123	84.3	-0.293	102
PRCC	2	-0.83	65.4	-0.3	79.1
PRCC	3	1.07	103	0.927	90.3
WFDC1	1	2.55	133	1.7	94.6
WFDC1	2	0.757	96.9	1.17	79.6
WFDC1	3	-1.59	50.3	-0.823	69.8
MEFV	1	-0.915	63.7	-0.754	86.8
MEFV	2	-0.355	74.8	-0.346	91.6
MEFV	3	1.84	118	3	60.1
ARID3A	1	-0.863	64.7	-1.14	97.6
ARID3A	2	-1.43	53.5	-0.303	64.7
ARID3A	3	-0.0446	81	-0.392	100
IRF9	1	0.375	89.4	0.242	93.7
IRF9	2	1.59	114	0.786	103
IRF9	3	-0.272	76.5	-0.517	97.9
MYBPC1	1	0.822	98.2	0.662	92.2
MYBPC1	2	0.987	102	0.621	96.3
MYBPC1	3	-0.217	77.6	-0.39	96
LOC100420746	1	1.27	107	0.94	93.5
LOC100420746	2	-0.915	63.7	-1.07	94.4
LOC100420746	3	-0.0352	81.2	-1.04	119
SERTAD1	1	-1.41	53.7	-1	78.2
SERTAD1	2	-0.151	78.9	0.0212	87.7
SERTAD1	3	-0.67	68.6	0.223	72.3
DSN1	1	1.54	113	1.56	83.4
DSN1	2	-0.497	72	-0.783	98.9
DSN1	3	-0.82	65.6	-1.02	95.9
KTI12	1	-0.152	78.9	0.0995	85.9
KTI12	2	-1.68	48.4	-1.79	86.7
KTI12	3	-0.631	69.3	-1.18	106
ATG14	1	1.95	121	1.73	85.5
ATG14	2	-0.8	66	-0.747	89.7
ATG14	3	-0.605	69.9	-0.892	98.7
ANGPTL7	1	0.717	96.1	0.783	87.4
ANGPTL7	2	3.96 (active)	161	2.83	85.2
ANGPTL7	3	-0.338	75.2	-0.383	92.9
RASGRP2	1	0.222	86.3	0.695	80.3
RASGRP2	2	-0.115	79.6	0.277	82.7
RASGRP2	3	0.912	100	0.796	90.6
MAP3K3	1	1.39	109	1.48	82.8
MAP3K3	2	0.41	90	-0.25	107
MAP3K3	3	-1.43	53.4	-2.15	105
TLX3	1	-0.266	76.6	-0.118	88.3
TLX3	2	2.1	124	1.42	95
TLX3	3	1.42	110	1.1	92.3
CCDC12	1	0.12	84.3	0.686	78.6
CCDC12	2	0.459	91	0.32	93.5
CCDC12	3	4.91 (active)	180	3.99	70.3
KLHL12	1	0.48	91.4	0.876	81.1
KLHL12	2	-0.181	78.3	1.31	61.9
KLHL12	3	-0.952	63	-0.758	85.9
NIPA1	1	0.679	95.4	0.896	84.2
NIPA1	2	1.83	118	1.66	85.5
NIPA1	3	-0.779	66.4	-1.44	108
GSAP	1	-0.918	63.6	-1.16	96.5
GSAP	2	0.859	99	0.316	102
GSAP	3	2.15	125	1.43	95.5
